# Test results reported in the supplement of paper PMC9135407.
# Values joined by “and” are separate entries in the source; they are usually repeats but may differ in a detail not shown here. Equal entries are not always repeated. Structures can show the parent of a compound that is named as a salt. ± gives the standard deviation of the averaged measurements. The list shows a part of the results. Baselines shift from plate to plate; read single values as rough.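 Culture-activated primary human stellate myofibroblasts, where regained lipid droplets signal inactivation. Value: share of Hoechst-counted cells above a per-plate Bodipy cutoff, in duplicate wells, with DMSO negative and nortriptyline positive controls on each plate. Hits: a control-normalized score above the plate's top-tenth-percentile nortriptyline wells, or one of a plate's three best wells. Final well concentrations are not given.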
# Test system: primary human hepatic stellate cells (donor 1)
# Experiment: percent Bodipy-positive cells; higher = more lipid droplet accumulation
# Conditions: 48 h
# [1] = library stock concentration: 3.33 mM
# [2] = library stock concentration: 10 mM
# [3] = library stock concentration: 1 mM
# [4] = library stock concentration: 13.1 mM
smiles,measurement,setting,value
CC(=O)Oc1cc(C(F)(F)F)ccc1C(=O)O [Triflusal],percent Bodipy-positive cells,,29.4 ± 14%
same,percent Bodipy-positive cells,[1],15.8 ± 3.3%
same,percent Bodipy-positive cells,[2],24.8 ± 3%
N=c1ccn2c(n1)O[C@H]1[C@H](O)[C@@H](CO)O[C@H]12 [Cyclocytidine HCl],percent Bodipy-positive cells,[1],17.4 ± 3.7%
same,percent Bodipy-positive cells,library stock concentration: 8.9 mM,9.75 ± 2.5%
same,percent Bodipy-positive cells,[2],21.5 ± 9.6%
N=c1ccn2c(n1)O[C@H]1[C@H](O)[C@@H](CO)O[C@H]12 [Ancitabine hydrochloride],percent Bodipy-positive cells,[2],61.8% and 44.3%
CC(=O)Oc1c(C)cccc1C(=O)O,percent Bodipy-positive cells,[2],28.4 ± 5%
C[N+](C)(C)CCO.[Br-] [Choline bromide],percent Bodipy-positive cells,[2],32.8 ± 8.6%
CNC(=O)c1ccc2cc([C@@]3(O)CCn4cncc43)ccc2c1 [TAK-700 (Orteronel)],percent Bodipy-positive cells,[1],9.72 ± 5.4%
same,percent Bodipy-positive cells,[2],28.5 ± 5%
CCCCCCCC/C=C\CCCCCCCC(=O)NCc1ccc(O)c(OC)c1 [Olvanil],percent Bodipy-positive cells,[3],8.98 ± 2.8%
same,percent Bodipy-positive cells,[2],21.9% and 9.89%
O=C1NC(=O)/C(=C\c2ccc3nccnc3c2)S1,percent Bodipy-positive cells,[3],14.8 ± 9.5%
same,percent Bodipy-positive cells,[2],33.6 ± 3.9%
Cc1cc(C(C)(C)CC(C)(C)C)ccc1OCCOCC[N+](C)(C)Cc1ccccc1 [Methylbenzethonium chloride],percent Bodipy-positive cells,[2],62.9 ± 7.5%
Cc1cc(C(C)(C)CC(C)(C)C)ccc1OCCOCC[N+](C)(C)Cc1ccccc1 [Methyl benzethonium chloride],percent Bodipy-positive cells,,54.6 ± 6.3%
Cc1cc(NC(=O)C2=C(O)c3ccccc3S(=O)(=O)N2C)no1 [Isoxicam],percent Bodipy-positive cells,,19.3 ± 2.9%
same,percent Bodipy-positive cells,library stock concentration: 6 mM,8.8 ± 4.8%
same,percent Bodipy-positive cells,[2],37.8 ± 0.71%
CN(C)S(=O)(=O)c1ccc2c(c1)/C(=C/c1cc3c([nH]1)CCCC3)C(=O)N2,percent Bodipy-positive cells,[2],88.88 ± 0.56%
CO[C@@]1(NC(=O)C2SC(=C(C(N)=O)C(=O)O)S2)C(=O)N2C(C(=O)O)=C(CSc3nnnn3C)CS[C@@H]21 (stereo not given in full) [Cefotetan],percent Bodipy-positive cells,,26.6 ± 6.3%
CN(C)CCCN1c2ccccc2CCc2ccc(Cl)cc21 [Clomipramine hydrochloride],percent Bodipy-positive cells,library stock concentration: 5.7 mM,86.5 ± 1.1%
CN(C)CCCN1c2ccccc2CCc2ccc(Cl)cc21 [Clomipramine HCl],percent Bodipy-positive cells,[1],63.7 ± 1.6%
CN(C)CCCN1c2ccccc2CCc2ccc(Cl)cc21,percent Bodipy-positive cells,[2],92.3 ± 6.1%
COC(=O)N1CCN(Cc2cccc(NC(=O)Nc3ccc(C)nc3)c2F)CC1,percent Bodipy-positive cells,[1],11.1 ± 3.5%
same,percent Bodipy-positive cells,[2],24.2 ± 2.2%
Clc1ccccc1CN1CCc2sccc2C1 [Ticlopidine hydrochloride],percent Bodipy-positive cells,,26.4 ± 2.7%
same,percent Bodipy-positive cells,library stock concentration: 6.7 mM,24.7 ± 11%
Clc1ccccc1CN1CCc2sccc2C1 [Ticlopidine HCl],percent Bodipy-positive cells,library stock concentration: 7.6 mM,12.8 ± 0.53%
Clc1ccccc1CN1CCc2sccc2C1,percent Bodipy-positive cells,[2],13.9 ± 3.8%
CCC(=O)O[C@H](CC(=O)O)C[N+](C)(C)C,percent Bodipy-positive cells,[2],33.7 ± 8%
COc1cc(Br)c(S(=O)(=O)Nc2ccc(Cl)c(O[C@@H]3CCN(C)C3)c2)cc1OC,percent Bodipy-positive cells,[2],24.8 ± 7.8%
CCc1cccc(N(C)C(=N)Nc2cccc3ccccc23)c1.Cl,percent Bodipy-positive cells,[2],96.97 ± 0.75%
CCN(CC)CCOC(=O)C1(c2ccc([N+](=O)[O-])cc2)CCCC1 [Nitrocaramiphen hydrochloride],percent Bodipy-positive cells,,29 ± 5.5%
same,percent Bodipy-positive cells,[2],30.54 ± 0.21%
Nc1ccc(O)c(C(=O)O)c1 [5-aminosalicylic acid],percent Bodipy-positive cells,[4],5.11 ± 1.1%
Nc1ccc(O)c(C(=O)O)c1 [5-Aminosalicylic Acid],percent Bodipy-positive cells,[3],12.7 ± 5.2%
Nc1ccc(O)c(C(=O)O)c1 [Mesalamine],percent Bodipy-positive cells,,7.67 ± 2.6%
same,percent Bodipy-positive cells,[1],7.61 ± 1.3%
same,percent Bodipy-positive cells,[2],14.6 ± 6.7%
same,percent Bodipy-positive cells,[4],10.8 ± 0.21%
Nc1ccc(O)c(C(=O)O)c1 [5-Amino-2-hydroxy-benzoic acid],percent Bodipy-positive cells,[2],5.27 ± 3.2%
COc1cc2ncnc(Nc3ccc(F)c(Cl)c3)c2cc1NC(=O)C=CCN1CCCCC1,percent Bodipy-positive cells,[1],96.997 ± 0.038%
CNC(=O)[C@H]1O[C@@H](n2cnc3c(NCc4ccc(N)cc4)ncnc32)[C@H](O)[C@@H]1O,percent Bodipy-positive cells,[2],30.5 ± 3.5%
CN(C)c1nc(N)c(C(=O)Nc2cccnc2)nc1Cl [ACDPP hydrochloride],percent Bodipy-positive cells,[2],8.22 ± 0.45%
N#Cc1ccc(NCCNCC(=O)N2CCC[C@H]2C#N)nc1 [NVP DPP 728 dihydrochloride],percent Bodipy-positive cells,[2],7.02 ± 2.8%
COc1cc(N2CCN(C)CC2)ccc1Nc1nccc(-c2cn(C)c3cnccc23)n1,percent Bodipy-positive cells,[1],56.2 ± 3.9%
same,percent Bodipy-positive cells,[2],100%
COc1cc2c(cc1O)CC[C@@H]1[C@@H]2CC[C@]2(C)[C@@H](O)CC[C@@H]12 [2-Methoxyestradiol (2-MeOE2)],percent Bodipy-positive cells,[1],15.6 ± 6.3%
same,percent Bodipy-positive cells,[2],35 ± 5.5%
COc1cc2c(cc1O)CC[C@@H]1[C@@H]2CC[C@]2(C)[C@@H](O)CC[C@@H]12 [2-methoxyestradiol],percent Bodipy-positive cells,[2],56.4 ± 3.9%
COc1cc2c(cc1O)CC[C@@H]1[C@@H]2CC[C@]2(C)[C@@H](O)CC[C@@H]12 [2-Methoxyestradiol],percent Bodipy-positive cells,[2],12 ± 5%
CC(C)NC[C@H](O)COc1ccc(CCOCC2CC2)cc1 [Levobetaxolol HCl],percent Bodipy-positive cells,[1],13.9 ± 1.1%
same,percent Bodipy-positive cells,[2],68.1 ± 23%

# A run of entries of the results above, as a working copy:
smiles,measurement,setting,value
COc1cc(Br)c(S(=O)(=O)Nc2ccc(Cl)c(O[C@@H]3CCN(C)C3)c2)cc1OC,percent Bodipy-positive cells,[2],24.8 ± 7.8%
CCc1cccc(N(C)C(=N)Nc2cccc3ccccc23)c1.Cl,percent Bodipy-positive cells,[2],96.97 ± 0.75%
CCN(CC)CCOC(=O)C1(c2ccc([N+](=O)[O-])cc2)CCCC1 [Nitrocaramiphen hydrochloride],percent Bodipy-positive cells,,29 ± 5.5%
same,percent Bodipy-positive cells,[2],30.54 ± 0.21%
